Measured values reported in the supplement of paper PMC4862054.
Small differences around the control level are noise.

Key:
Assay in all cases: normalised response (% of control), CellTox Green; higher = less cell death (100 = DMSO, 0 = benzethonium chloride kill control)
Conditions in all cases: incubation time: 72 h
[1] = test system: BT-474
Method: (§1)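 DSRT, 72 h incubation, CellTox Green / CellTiter-Glo readout. Signal is normalised to DMSO and benzethonium chloride controls. Value is the normalised response at the lowest tested concentration.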

[2] = test system: BT-549
Method: as §1

[3] = test system: CAL-120
Method: as §1

[4] = test system: CAL-148
Method: as §1

[5] = test system: CAL-51
Method: as §1

[6] = test system: CAL-85-1
Method: as §1

[7] = test system: DU-4475
Method: as §1

[8] = test system: HCC1143
Method: as §1

[9] = test system: HCC1599
Method: as §1

[10] = test system: HCC1937
Method: as §1

[11] = test system: HDQ-P1
Method: as §1

[12] = test system: Hs578T
Method: as §1

[13] = test system: MCF-10A
Method: as §1

[14] = test system: MDA-MB-231
Method: as §1

[15] = test system: MDA-MB-436
Method: as §1

[16] = test system: MDA-MB-453
Method: as §1

[17] = test system: MDA-MB-468
Method: as §1

[18] = test system: MFM-223
Method: as §1

| SMILES | normalised response [1] | normalised response [2] | normalised response [3] | normalised response [4] | normalised response [5] | normalised response [6] | normalised response [7] | normalised response [8] | normalised response [9] | normalised response [10] | normalised response [11] | normalised response [12] | normalised response [13] | normalised response [14] | normalised response [15] | normalised response [16] | normalised response [17] | normalised response [18] |
| --- | --- | --- | --- | --- | --- | --- | --- | --- | --- | --- | --- | --- | --- | --- | --- | --- | --- | --- |
| O=C(O)CCCc1ccc(N(CCCl)CCCl)cc1 [Chlorambucil] (1 nM) | 99.4% | 93.8% | 100% | 104% | 102% | 105% | 103% | 124% | 109% | 105% | 102% | 103% | 102% | 97.3% | 102% | 106% | 71.5% | 103% |
| CCCC(CCC)C(=O)O [Valproic acid] (100 nM) | 96.9% | 103% | 104% | 89.8% | 106% | 98% | 113% | 94.5% | 121% | 107% | 102% | 108% | 108% | 116% | 115% | 98.2% | 114% | 100% |
| Cc1[nH]c2ccccc2c1CCNCc1ccc(/C=C/C(=O)NO)cc1 [Panobinostat] (0.1 nM) | 101% | 96.6% | 98% | 102% | 98% | 97.6% | 95.7% | 101% | 99.4% | 83.7% | 95.9% | 104% | 52.5% | 91.5% | 81.8% | 101% | 99.8% | 95.1% |
| CS(=O)(=O)CCNCc1ccc(-c2ccc3ncnc(Nc4ccc(OCc5cccc(F)c5)c(Cl)c4)c3c2)o1 [Lapatinib] (0.1 nM) | 103% | 90% | 98.1% | 105% | 124% | 107% | 102% | 113% | 101% | 101% | 89.9% | 54.7% | 98.8% | 105% | 100% | 110% | 62.4% | 88.3% |
